From patent publication EP3020822A1
These are yes or no findings as the source states them, for the method shown. Some results given as binding are weak or reduced against the parent protein; the word gives no strength.

Sequences of proteins named here, by UniProt entry; tags and fusion partners are left off. A change or cut given only in a name is not applied to a line headed by its entry.
UniProt Q99MB1: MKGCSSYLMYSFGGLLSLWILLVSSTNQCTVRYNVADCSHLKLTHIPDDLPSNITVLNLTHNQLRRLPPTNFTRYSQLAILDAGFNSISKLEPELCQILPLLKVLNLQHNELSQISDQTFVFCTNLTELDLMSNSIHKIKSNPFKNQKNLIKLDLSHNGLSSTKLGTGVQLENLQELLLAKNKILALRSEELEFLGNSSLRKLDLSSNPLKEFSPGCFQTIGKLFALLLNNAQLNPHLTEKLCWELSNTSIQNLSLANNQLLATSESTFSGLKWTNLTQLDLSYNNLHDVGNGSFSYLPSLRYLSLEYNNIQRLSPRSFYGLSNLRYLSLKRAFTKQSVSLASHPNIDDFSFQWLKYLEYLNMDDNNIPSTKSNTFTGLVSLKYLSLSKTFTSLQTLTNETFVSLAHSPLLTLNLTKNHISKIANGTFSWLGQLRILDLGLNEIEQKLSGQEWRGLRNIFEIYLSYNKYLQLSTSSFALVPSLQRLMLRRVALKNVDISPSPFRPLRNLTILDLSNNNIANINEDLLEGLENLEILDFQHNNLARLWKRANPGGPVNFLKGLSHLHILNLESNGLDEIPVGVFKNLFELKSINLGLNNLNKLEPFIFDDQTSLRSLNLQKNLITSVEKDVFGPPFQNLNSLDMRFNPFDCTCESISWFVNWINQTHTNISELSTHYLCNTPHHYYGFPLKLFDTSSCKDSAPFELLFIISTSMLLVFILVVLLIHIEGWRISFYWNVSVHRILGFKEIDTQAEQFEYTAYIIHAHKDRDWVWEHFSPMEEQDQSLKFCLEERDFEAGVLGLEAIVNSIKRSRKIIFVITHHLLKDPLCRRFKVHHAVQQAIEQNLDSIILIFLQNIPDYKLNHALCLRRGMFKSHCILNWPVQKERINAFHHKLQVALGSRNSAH

Biological target: murine TLR3, full length (mouse) (UniProt Q99MB1)
Test: flow cytometry, surface staining of thioglycollate-elicited mouse peritoneal macrophages, Alexa-Fluor 647 conjugate

binding: binds
B1: mAb c1811 (antibody, mouse IgG1, kappa, V domains shown)
VH: EVQLVASGGGLVKPGASLKLSCVASGFTFSDYWMAWVRQTPGKPMEYIGDIKSDGSKVNYAPSLKNRFTISRDNARTTLYLQMSNVRSEDTATYYCNRDIGPDWYFDFWGPGTMVTVSS
VL: DIQMTQSPTSLSASLGETVTIECRASEDIYNGLAWYQQKPGKSPQLLIYDSNSLHTGVPSRFSGRGSGTQYSLRINSLQSEDVASYFCQQYYDYPLTFGSGTKLEIKR
